We go through one sequence from patent US11306122B2 (United States Government As Represented By The Department …, priority 2019, dated 2022).

A short description of this data set: peptide made by a vendor. Particulars: whole synthesis; run 1.

End groups of sequences in plain letters are not given here.

Consider QDDSKVFKEGSCLLADDN, for which the “purity (crude or final not stated)” value is given as 96.65%.
